Data reported in US20240082331A1, “ANTI-OBESITY COMPOSITION CONTAINING, AS ACTIVE INGREDIENT, MORINGA OLEIFERA FERMENTATION PRODUCT PREPARED USING NOVEL MONASCUS PURPUREUS SL1” (MBIOMETHERAPEUTICS CO., LTD., priority 2021, published 2024).
At least one structure is not confirmed: it was looked up by name or label, or the drawing left a doubt.

Test system: 3T3-L1 preadipocytes
Assay: Inhibition of adipocyte differentiation (AdipoRed assay)
Format: cell-based, mice
Settings: FIG. 3
Procedure: Preadipocytes (3T3-L1) from mice were purchased from ATCC (American Type Culture Collection). DMEM culture medium, Trypsin/EDTA, FBS (fetal bovine serum), and BCS (Bovine calf serum) were purchased from Gibco (Invitrogen corporation). AdipoRed assay reagent for measurement was purchased from Cambrex. Specifically, 3T3-L1 preadipocytes were cultured in DMEM medium containing 10% BCS and antibiotics, and maintained in a CO 2 incubator with 5% carbon dioxide supply. The cells were seeded at a concentration of 1×10^6 cells in a 96-well plate and cultured until they reached 100% confluency. To measure adipocyte differentiation, the cells were treated with MD medium (0.5 mM 3-isobutyl-1-methylxanthine and 1 μM dexamethasone). After 2 days, the medium was replaced with DMEM medium containing 10% FBS, and further cultured for 6 days. Moringa powder and fermented Moringa extract were treated at various concentrations. […] After 10 minutes, fluorescence intensity was measured using a fluorescence intensity reader. Subsequently, the inhibitory effect on adipocyte differentiation in the six compounds isolated in Example 2 was measured. […]

**Q.** `O=c1c(O[C@@H]2O[C@H](CO)[C@@H](O)[C@H](O)[C@H]2O)c(-c2ccc(O)c(O)c2)oc2cc(O)cc(O)c12` [MOE-11, isoquercetin] was tested. Which “adipocyte differentiation inhibition activity of isolated compounds” value did it give?
**A.** Its value is “excellent adipocyte differentiation inhibition activity”.
